Source: patent US20250388664A1
Results are given in words; binding and its absence hold for the method and conditions named. Some entries that bind do so weakly or less than the wild type.

By UniProt entry, the sequences of proteins in these tests, tags left out. Residues count along the entry.
UniProt P02787, residues 20-698: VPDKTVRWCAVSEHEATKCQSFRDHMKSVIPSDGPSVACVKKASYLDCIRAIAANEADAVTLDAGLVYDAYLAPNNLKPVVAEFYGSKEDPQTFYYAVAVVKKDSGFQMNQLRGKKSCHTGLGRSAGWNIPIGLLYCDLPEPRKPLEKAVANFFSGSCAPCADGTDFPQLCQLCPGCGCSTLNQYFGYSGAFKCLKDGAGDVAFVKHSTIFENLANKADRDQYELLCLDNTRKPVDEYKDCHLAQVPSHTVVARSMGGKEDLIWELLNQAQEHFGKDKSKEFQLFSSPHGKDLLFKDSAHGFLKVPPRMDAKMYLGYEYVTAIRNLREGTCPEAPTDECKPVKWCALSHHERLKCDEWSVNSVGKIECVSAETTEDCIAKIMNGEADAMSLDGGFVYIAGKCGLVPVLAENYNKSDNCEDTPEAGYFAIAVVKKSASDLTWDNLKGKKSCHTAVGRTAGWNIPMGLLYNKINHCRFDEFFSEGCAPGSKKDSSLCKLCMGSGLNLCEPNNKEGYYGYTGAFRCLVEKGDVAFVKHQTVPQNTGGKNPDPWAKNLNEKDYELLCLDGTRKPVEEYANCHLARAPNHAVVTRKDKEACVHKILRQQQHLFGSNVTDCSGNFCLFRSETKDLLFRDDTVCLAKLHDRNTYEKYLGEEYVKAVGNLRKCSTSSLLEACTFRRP

Biological target: cTfR1 (recombinant, construct not specified) (cynomolgus monkey)
Experiment: BLI, TfR1 captured by transferrin-loaded sensors

binding: binds
Substance: human holo-transferrin (from UniProt P02787 20-698) (ligand)
